From paper PMC2896474, “Thioredoxin A Active-Site Mutants Form Mixed Disulfide Dimers That Resemble Enzyme–Substrate Reaction Intermediates” (Journal of Molecular Biology, 2008) come the findings set out here.

The target of assay [1] is C29S single-mutant BsTrxA, C-terminal His6-tag (B. subtilis 168) (UniProt P14949). As to the kind of experiment: reducing SDS-PAGE + capillary gel electrophoresis (2100 Bioanalyzer); purified His6-tagged BsTrxA proteins alone, 10 mM DTT added to the samples before electrophoresis (Fig. 2a, lanes + DTT); both purified.
The target is the same in assay [2]. Description: nonreducing SDS-PAGE + capillary gel electrophoresis (2100 Bioanalyzer) after AMS labelling; purified His6-tagged BsTrxA proteins alone, incubated with 0.3 mM AMS, no DTT (Fig. 2a, lanes + AMS); both purified.
The target of assay [3] is C32S single-mutant BsTrxA, C-terminal His6-tag (B. subtilis 168) (UniProt P14949). As to the kind of experiment: reducing SDS-PAGE + capillary gel electrophoresis (2100 Bioanalyzer); purified His6-tagged BsTrxA proteins alone, 10 mM DTT added to the samples before electrophoresis (Fig. 2a, lanes + DTT); both purified.

Results are given in words; binding and its absence hold for the method and conditions named. Where a sequence is shown, tags or fusion partners need not be part of it.

B1: C29S single-mutant BsTrxA, C-terminal His6-tag (enzyme, B. subtilis 168, UniProt P14949 1-104, looked up)
chain: MAIVKATDQSFSAETSEGVVLADFWAPWSGPCKMIAPVLEELDQEMGDKLKIVKIDVDENQETAGKYGVMSIPTLLVLKDGEVVETSVGFKPKEALQELVNKHL
notes: Vector probably adds Leu-Glu before His6 (surmised); also called C29S BsTrxA; BsTrxA(C29S); source: E. coli BL21(DE3), purified (nickel IMAC HisTrap HP, Superdex 75 gel filtration); not shown: His6, C-terminal, kept
For B1, the binding result in assay [1] is given as “no binding (condition: with 10 mM DTT)”; in assay [2], “no binding (condition: with 0.3 mM AMS)”.

B2: C32S single-mutant BsTrxA, C-terminal His6-tag (enzyme, B. subtilis 168, UniProt P14949 1-104, looked up)
chain: MAIVKATDQSFSAETSEGVVLADFWAPWCGPSKMIAPVLEELDQEMGDKLKIVKIDVDENQETAGKYGVMSIPTLLVLKDGEVVETSVGFKPKEALQELVNKHL
notes: In the homodimer the two chains are joined by a Cys29-Cys29 disulfide bond (crystal structure 2VOC); Vector probably adds Leu-Glu before His6 (surmised); also called C32S BsTrxA; TrxA C32S; source: E. coli BL21(DE3), purified (nickel IMAC HisTrap HP, Superdex 75 gel filtration); not shown: His6, C-terminal, kept
With B2, the binding entry in assay [3] is recorded as “no binding (condition: with 10 mM DTT)”.
